Laboratory results as given in the supplement of paper PMC4807443.
Where a name gives a salt, the structure may show the parent alone. The list shows a part of the results. The numbers are fractions of the control, whatever unit the source prints. Most values lie at the level of the controls, where differences are scatter.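 A lentiviral reporter stably expressed in MIN6 mouse insulinoma beta cells uses Pdx1 and Ins1 promoters to drive separate nucleus-targeted fluorescent proteins; automated imaging with Hoechst nuclear stain counted cells. Possible hits were drugs shifting Ins1 promoter signal more than two median absolute deviations from DMSO controls, with Pdx1 activity roughly normal.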

tested on: MIN6; test: % Pdx1+ Ins1-low (RFP-only, immature) cells relative to DMSO control (fold of DMSO control); higher = more immature Pdx1+/Ins1-low cells; settings: 8.5 µM; 48 h; glucose 5 mM

Row | Compound | % Pdx1+ Ins1-low
1 | CN1[C@@H]2CC[C@H]1C[C@@H](OC(=O)[C@H](CO)c1ccccc1)C2 [Hyoscyamine (L)] | 1.17
2 | COc1ccc(CN2CCNCC2)c(OC)c1OC [Trimetazidine dihydrochloride] | 1.21
3 | O=c1[nH]c2ccccc2n1CCCN1CCC(n2c(=O)[nH]c3cc(Cl)ccc32)CC1 [Domperidone maleate] | 1.25
4 | C#C[C@]1(O)CC[C@H]2[C@@H]3CCC4=CC(=O)CC[C@]4(C)[C@H]3CC[C@@]21C [Ethisterone] | 0.611
5 | C=C1[C@H]2C[C@@]3([C@@H]1O)[C@@H](C[C@@H]2O)[C@]12[C@@H]4C[C@H]3[C@H]1N(CC)C[C@]4(C)CC[C@@H]2O [Napelline] | 1.14
6 | CC(C)[N+](C)(CCC(C(N)=O)(c1ccccc1)c1ccccc1)C(C)C [Isopropamide iodide] | 0.726
7 | C/C=C1/C[N+]2(C)CCC34C(=C(C=O)[C@H]1C[C@@H]32)Nc1ccccc14 (stereo not given in full) [Fluorocurarine chloride] | 0.327
8 | S=C(NC1CCCCC1)N1CCC(c2cnc[nH]2)CC1 [Thioperamide maleate] | 0.627
9 | C[C@]12CC[C@H]3[C@@H](CC[C@]4(O)C[C@@H](O)CC[C@]34C=O)[C@@]1(O)CC[C@@H]2C1=CC(=O)OC1 [Strophanthidin] | 0.734
10 | CCN(CC)C(=O)N[C@H]1C=C2c3cccc4[nH]cc(c34)C[C@H]2N(C)C1 [Lisuride (S)(-)] | 0.696
11 | CCN(CC)C(=O)N[C@@H]1CC2c3cccc4[nH]cc(c34)CC2N(C)C1 (stereo partly drawn) [S(-)-terguride hydrogen maleate] | 1.05
12 | NC(N)=NOCC[C@H](N)C(=O)O [Canavanine sulfate monohydrate (L,+)] | 0.93
13 | CN1[C@@H]2CCC[C@H]1CC(=O)C2 [Pseudopelletierine hydrochloride] | 1.23
14 | COc1ccc2c(c1)[C@]13CCCC[C@@H]1[C@H](C2)N(C)CC3 [Dextromethorphan hydrobromide monohydrate] | 0.886
15 | C=C[C@H]1CN2CC[C@H]1C[C@H]2[C@H](O)c1ccnc2ccccc12 [(-)-Cinchonidine] | 1.36
16 | CC1=NCCc2c1[nH]c1cc(O)ccc21 [Harmalol hydrochloride dihydrate] | 0.801
17 | CNCC(O)c1ccc(O)cc1 (racemic) [(+,-)-Synephrine] | 0.921
18 | CC1=CC(=O)C2=C(C)C[C@H](O)[C@@H]3[C@H](OC(=O)[C@H]3C)[C@H]12 [Austricine] | 0.726
19 | C[C@]12CC[C@@H](O)C[C@@H]1CC[C@@H]1[C@@H]2CC[C@]2(C)C(=O)CC[C@@H]12 [Androsterone] | 1.48
20 | COc1cc2c3cc1Oc1cc(ccc1O)C[C@@H]1c4c(cc(OC)c(O)c4Oc4cccc(c4)C[C@@H]3N(C)CC2)CC[N+]1(C)C [Tubocurarine chloride pentahydrate (+)] | 1.04
21 | C1CCc2nnnn2CC1 [Pentylenetetrazole] | 0.927
22 | COc1cc2c(cc1O)[C@@H]1Cc3ccc(OC)c(O)c3CN1CC2 [Scoulerine] | 1.13
23 | CC(Cc1ccc(O)cc1)NCC(O)c1cc(O)cc(O)c1 (stereo not given) [Fenoterol hydrobromide] | 0.619
24 | C=C[C@H]1CN2CC[C@H]1C[C@@H]2[C@@H](O)c1ccnc2ccccc12 [Cinchonine] | 0.46
25 | C=C1[C@@H]2CC[C@H]3[C@]4(C)C[C@H](O[C@@H]5O[C@H](CO)[C@@H](OS(=O)(=O)O)[C@H](OS(=O)(=O)O)[C@H]5OC(=O)CC(C)C)C[C@@H](C(=O)O)[C@H]4CC[C@]3(C2)[C@@H]1O [Atractyloside potassium salt] | 1.19

Part of the list above, tab-delimited.
Row	Compound	% Pdx1+ Ins1-low
2	COc1ccc(CN2CCNCC2)c(OC)c1OC [Trimetazidine dihydrochloride]	1.21
3	O=c1[nH]c2ccccc2n1CCCN1CCC(n2c(=O)[nH]c3cc(Cl)ccc32)CC1 [Domperidone maleate]	1.25
